According to US6348471B1, “Pyrimidyl oxyphenylacetic acid derivatives” (Bayer Aktiengesellschaft, priority 1997, dated 2002):
Some results were stated once for a whole list of compounds, not compound by compound. For at least one compound, name, drawing or mass did not settle the structure.

System: Venturia inaequalis
Assay: Venturia test (apple)/protective
Format: in vivo
Conditions: protective, application rate 10 g/ha, evaluation 12 days after inoculation

SMILES	efficacy
CNC(=O)C(=NOC)c1ccccc1Oc1nccc(OC(C)C(F)(F)F)n1 (centres unmarked) [2-(methoxyimino)-N-methyl-2-[[4-(2,2,2-trifluoro-1-methylethoxy)-2-pyrimidyl]oxy]-phenylacetamide]	below 80%
CNC(=O)C(=NOC)c1ccccc1Oc1nccc(OCC(F)(F)F)n1 [2-(methoxyimino)-N-methyl-2-[[4-(2,2,2-trifluoroethoxy)-2-pyrimidyl]oxy]-phenylacetamide]	below 80%
